PubChem BioAssay AID652243, Drosophila RNAi Screening Center, 2013

- Screen: 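Knock-downs that decrease or increase androgen receptor reporter signal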 (primary screen)
- Cells: Drosophila S2R+ cells
- Reagents: long dsRNA against Drosophila genes
- Timing: 72 h (48 h, then 24 h hormone)
- Treatment: synthetic androgen R1881 at 10 nM for 24 h
- Measurement: 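Firefly light from an androgen-responsive reporter and Renilla control light per well, raw and unnormalised, for each of two replicates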
- Reading the numbers: firefly reporter light: higher = more light from androgen-responsive reporter; Renilla control light: higher = more constitutive control signal (cell number, transfection)
- Hit rule: 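Across duplicate plates, a knock-down whose log firefly/Renilla ratio shifted a set fold down or up from the GFP/LacZ control mean was a hit; the downward cut appears as both 1.5 and 3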
- Meaning of the calls: active = hit: reporter lowered or raised; inactive = no hit
The deposit covers about 24,000 reagents; below is an unselected part of those that have a named target and a result. In the full data, 246 (1%) are marked active. 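Plates not normalised; calls are printed but the firefly/Renilla ratio behind them is not deposited; fold cut for lowering reported inconsistently.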 The raw values are shown without normalisation. The numbers tell different reagents against one gene apart. Not stated in the record: the amount of reagent.

gene | reagent no. | firefly reporter light, replicate 1 | firefly reporter light, replicate 2 | Renilla control light, replicate 1 | Renilla control light, replicate 2 | activity call
CG12783 | 1 | 1.27e5 | 90261 | 1.50e6 | 2.01e6 | inactive
CG4839 | 1 | 8.20e5 | 9.88e5 | 1.95e6 | 2.03e6 | inactive
CG4839 | 2 | 2.28e5 | 1.72e5 | 1.10e6 | 1.05e6 | inactive
CG4839 | 3 | – | – | – | – | inactive
CG31265 | 1 | 96041 | 95149 | 1.44e6 | 1.35e6 | inactive
CG31265 | 2 | 5.58e5 | 5.11e5 | 1.64e6 | 1.60e6 | inactive
CG14562 | 1 | 2.67e5 | 3.05e5 | 2.34e6 | 2.35e6 | inactive
CG32856 | 1 | 1.61e5 | 1.62e5 | 2.55e5 | 2.53e5 | inactive
CG32856 | 2 | 5.22e5 | 3.80e5 | 1.34e6 | 1.57e6 | inactive
Taf11 (TBP-associated factor 11) | 1 | 1.47e5 | 54176 | 1.56e6 | 6.77e5 | inactive
CG7016 | 1 | 1.90e5 | 2.06e5 | 1.69e6 | 2.48e6 | inactive
ACC (Acetyl-CoA carboxylase) | 1 | 63055 | 64298 | 1.80e5 | 1.80e5 | inactive
ACC (Acetyl-CoA carboxylase) | 2 | 5.19e5 | 3.53e5 | 1.17e6 | 7.65e5 | inactive
CG34188 | 1 | 9.65e5 | 9.71e5 | 1.86e6 | 1.86e6 | inactive
CG13694 | 1 | 67306 | 1.08e5 | 4.17e5 | 5.49e5 | inactive
Tsf3 (Transferrin 3) | 1 | 7.66e5 | 7.08e5 | 1.23e6 | 9.59e5 | inactive
CG10713 | 1 | 3.60e5 | 1.98e5 | 1.62e6 | 1.11e6 | inactive
CG10713 | 2 | 5.72e5 | 5.24e5 | 9.13e5 | 9.32e5 | inactive
CR10991 (pseudo) | 1 | 78826 | 1.04e5 | 2.60e6 | 2.69e6 | inactive
OXA1L (OXA1L mitochondrial inner membrane protein) | 1 | 1.01e6 | 7.90e5 | 1.13e6 | 1.21e6 | inactive
OXA1L (OXA1L mitochondrial inner membrane protein) | 2 | 6.59e5 | 3.87e5 | 1.43e6 | 1.43e6 | inactive
CG9926 | 1 | 1.02e5 | 81470 | 4.40e5 | 5.68e5 | inactive
CG9926 | 2 | 1.01e6 | 6.97e5 | 1.50e6 | 1.17e6 | inactive
CG2861 | 1 | 2.77e5 | 4.47e5 | 3.11e6 | 2.87e6 | inactive

Taken from above.
CG4839 #3, activity call: inactive
Under “Renilla control light, replicate 1”, CG10713 #1 has 1.62e6
Entry of CG31265 #2 under “Renilla control light, replicate 2”: 1.60e6
Result of CG10713 #2 under “firefly reporter light, replicate 2”: 5.24e5
